Experimental data from the supplement of paper PMC10849652.
The other results are listed elsewhere or left out.

Sequences of proteins named here, by UniProt entry; tags and fusion partners are left off. A change or cut given only in a name is not applied to a line headed by its entry.
UniProt P07741: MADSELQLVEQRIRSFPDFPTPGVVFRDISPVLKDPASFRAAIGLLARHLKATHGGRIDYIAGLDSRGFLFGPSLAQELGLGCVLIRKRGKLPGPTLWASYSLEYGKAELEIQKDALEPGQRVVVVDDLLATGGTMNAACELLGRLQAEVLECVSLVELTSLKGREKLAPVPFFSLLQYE
UniProt Q86W74: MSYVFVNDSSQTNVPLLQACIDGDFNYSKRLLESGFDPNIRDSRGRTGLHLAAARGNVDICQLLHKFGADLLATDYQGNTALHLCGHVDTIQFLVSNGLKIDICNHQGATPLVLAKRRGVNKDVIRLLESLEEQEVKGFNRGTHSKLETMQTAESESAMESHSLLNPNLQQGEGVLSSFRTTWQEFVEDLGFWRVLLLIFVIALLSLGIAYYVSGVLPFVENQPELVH
UniProt Q9BUR5: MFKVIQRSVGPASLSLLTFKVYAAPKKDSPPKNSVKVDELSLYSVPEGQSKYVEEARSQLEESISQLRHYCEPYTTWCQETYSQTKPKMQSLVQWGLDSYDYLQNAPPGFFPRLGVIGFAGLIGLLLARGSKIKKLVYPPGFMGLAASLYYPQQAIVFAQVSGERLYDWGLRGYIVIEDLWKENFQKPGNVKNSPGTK
UniProt Q92688: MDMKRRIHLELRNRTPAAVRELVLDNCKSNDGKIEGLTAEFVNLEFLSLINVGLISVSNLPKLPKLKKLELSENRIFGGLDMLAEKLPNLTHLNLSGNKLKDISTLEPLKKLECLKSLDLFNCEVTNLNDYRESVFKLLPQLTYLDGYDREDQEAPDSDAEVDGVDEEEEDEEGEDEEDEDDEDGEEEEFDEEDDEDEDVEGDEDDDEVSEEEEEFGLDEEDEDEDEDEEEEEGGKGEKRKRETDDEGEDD
UniProt P05067, whole entry, looked up: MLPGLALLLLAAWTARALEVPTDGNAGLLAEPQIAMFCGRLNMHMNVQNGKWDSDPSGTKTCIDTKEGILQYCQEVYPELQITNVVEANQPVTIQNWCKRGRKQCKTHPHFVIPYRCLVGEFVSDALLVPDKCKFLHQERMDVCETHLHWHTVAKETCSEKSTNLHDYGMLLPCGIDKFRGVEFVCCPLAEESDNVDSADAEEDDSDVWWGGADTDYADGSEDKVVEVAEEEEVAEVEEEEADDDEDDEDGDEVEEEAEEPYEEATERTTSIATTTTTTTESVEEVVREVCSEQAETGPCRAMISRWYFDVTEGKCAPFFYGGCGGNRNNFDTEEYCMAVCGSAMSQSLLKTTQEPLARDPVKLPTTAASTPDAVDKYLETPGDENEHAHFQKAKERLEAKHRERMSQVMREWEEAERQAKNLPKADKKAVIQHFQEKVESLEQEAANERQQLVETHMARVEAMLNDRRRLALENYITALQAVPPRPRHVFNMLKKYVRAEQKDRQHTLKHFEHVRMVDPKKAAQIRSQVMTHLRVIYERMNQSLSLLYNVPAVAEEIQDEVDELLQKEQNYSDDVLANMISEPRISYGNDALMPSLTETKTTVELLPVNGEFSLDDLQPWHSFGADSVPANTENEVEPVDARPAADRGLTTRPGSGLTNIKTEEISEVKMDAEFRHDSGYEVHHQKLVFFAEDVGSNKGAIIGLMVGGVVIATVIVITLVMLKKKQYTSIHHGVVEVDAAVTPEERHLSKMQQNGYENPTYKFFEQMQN
UniProt P16157: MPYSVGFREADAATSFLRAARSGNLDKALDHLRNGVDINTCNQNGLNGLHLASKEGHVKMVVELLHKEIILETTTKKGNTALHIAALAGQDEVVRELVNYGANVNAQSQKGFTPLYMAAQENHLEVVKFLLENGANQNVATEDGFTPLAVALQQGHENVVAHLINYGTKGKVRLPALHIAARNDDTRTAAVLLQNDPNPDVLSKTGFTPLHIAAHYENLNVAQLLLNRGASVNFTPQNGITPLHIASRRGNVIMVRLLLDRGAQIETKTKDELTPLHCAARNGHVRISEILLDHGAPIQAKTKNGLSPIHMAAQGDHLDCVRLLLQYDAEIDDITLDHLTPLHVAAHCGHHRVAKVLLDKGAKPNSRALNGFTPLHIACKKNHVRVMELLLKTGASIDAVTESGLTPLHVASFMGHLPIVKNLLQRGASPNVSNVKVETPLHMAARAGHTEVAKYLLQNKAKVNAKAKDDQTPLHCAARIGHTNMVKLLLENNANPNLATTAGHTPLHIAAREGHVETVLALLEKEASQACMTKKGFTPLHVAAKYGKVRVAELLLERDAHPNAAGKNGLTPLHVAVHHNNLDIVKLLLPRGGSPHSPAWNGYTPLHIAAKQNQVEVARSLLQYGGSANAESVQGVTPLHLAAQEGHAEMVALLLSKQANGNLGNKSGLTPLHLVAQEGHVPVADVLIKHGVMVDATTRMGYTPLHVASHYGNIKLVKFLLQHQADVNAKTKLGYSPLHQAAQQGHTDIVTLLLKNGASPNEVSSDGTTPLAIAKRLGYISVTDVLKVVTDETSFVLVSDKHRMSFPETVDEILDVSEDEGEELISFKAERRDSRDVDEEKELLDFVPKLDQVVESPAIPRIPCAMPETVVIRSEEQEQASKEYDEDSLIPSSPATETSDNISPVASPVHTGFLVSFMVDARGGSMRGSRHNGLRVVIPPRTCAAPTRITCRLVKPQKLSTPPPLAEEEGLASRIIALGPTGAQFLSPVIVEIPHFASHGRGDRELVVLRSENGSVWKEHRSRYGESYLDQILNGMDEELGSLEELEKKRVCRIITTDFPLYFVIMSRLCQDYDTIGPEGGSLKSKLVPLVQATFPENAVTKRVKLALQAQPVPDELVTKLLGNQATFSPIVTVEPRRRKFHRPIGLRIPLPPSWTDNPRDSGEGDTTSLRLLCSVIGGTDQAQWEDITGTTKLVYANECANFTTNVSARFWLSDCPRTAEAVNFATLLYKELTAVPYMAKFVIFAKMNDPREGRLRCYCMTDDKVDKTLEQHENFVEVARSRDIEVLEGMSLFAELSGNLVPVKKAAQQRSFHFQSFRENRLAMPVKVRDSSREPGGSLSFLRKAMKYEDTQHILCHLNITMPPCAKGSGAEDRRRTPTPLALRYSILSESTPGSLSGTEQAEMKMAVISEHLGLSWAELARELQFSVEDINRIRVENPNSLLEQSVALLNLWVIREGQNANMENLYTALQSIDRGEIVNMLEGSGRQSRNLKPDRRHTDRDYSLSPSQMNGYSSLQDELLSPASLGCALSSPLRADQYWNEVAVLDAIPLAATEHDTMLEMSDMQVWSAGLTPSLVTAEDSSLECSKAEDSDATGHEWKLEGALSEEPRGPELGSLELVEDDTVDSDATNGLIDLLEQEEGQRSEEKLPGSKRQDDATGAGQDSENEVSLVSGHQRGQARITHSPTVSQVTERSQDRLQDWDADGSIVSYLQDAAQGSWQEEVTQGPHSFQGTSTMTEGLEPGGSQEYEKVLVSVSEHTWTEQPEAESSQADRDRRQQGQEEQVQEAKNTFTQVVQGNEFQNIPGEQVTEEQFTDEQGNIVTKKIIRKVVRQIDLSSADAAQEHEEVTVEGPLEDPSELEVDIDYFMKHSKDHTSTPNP
UniProt Q8WVL7: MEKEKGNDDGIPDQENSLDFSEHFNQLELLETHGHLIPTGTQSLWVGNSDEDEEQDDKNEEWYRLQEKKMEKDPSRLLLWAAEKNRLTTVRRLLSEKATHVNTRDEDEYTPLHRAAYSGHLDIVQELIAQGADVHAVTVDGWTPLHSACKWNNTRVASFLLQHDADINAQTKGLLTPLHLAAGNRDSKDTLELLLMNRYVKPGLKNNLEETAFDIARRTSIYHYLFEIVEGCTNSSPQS
UniProt P08133: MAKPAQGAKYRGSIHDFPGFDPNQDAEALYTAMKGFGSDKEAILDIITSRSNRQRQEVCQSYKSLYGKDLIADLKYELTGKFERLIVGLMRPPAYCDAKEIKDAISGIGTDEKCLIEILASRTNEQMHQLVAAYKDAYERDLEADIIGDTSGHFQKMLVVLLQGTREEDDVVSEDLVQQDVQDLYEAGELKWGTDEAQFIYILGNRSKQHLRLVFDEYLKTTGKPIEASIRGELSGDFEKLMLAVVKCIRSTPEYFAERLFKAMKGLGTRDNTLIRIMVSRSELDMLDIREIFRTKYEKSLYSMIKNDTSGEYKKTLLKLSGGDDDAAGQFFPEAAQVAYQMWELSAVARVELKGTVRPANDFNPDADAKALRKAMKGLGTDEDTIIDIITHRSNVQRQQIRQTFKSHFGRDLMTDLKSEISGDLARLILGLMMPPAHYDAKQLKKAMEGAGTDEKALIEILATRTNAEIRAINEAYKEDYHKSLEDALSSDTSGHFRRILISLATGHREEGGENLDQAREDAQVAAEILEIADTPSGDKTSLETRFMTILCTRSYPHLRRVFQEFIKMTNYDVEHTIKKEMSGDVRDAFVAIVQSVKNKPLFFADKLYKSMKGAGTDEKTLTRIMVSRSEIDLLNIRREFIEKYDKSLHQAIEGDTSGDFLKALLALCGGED
UniProt P84085: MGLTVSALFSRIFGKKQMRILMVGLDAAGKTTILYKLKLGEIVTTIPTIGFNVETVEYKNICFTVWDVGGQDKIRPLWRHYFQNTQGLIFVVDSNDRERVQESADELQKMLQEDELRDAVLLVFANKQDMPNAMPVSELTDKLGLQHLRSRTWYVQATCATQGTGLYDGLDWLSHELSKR
UniProt Q9NRW3: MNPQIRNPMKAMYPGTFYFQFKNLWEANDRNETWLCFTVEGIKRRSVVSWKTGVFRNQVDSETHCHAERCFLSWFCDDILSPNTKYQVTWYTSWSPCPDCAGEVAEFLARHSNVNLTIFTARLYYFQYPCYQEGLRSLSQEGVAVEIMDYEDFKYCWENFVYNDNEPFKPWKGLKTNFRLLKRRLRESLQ
UniProt O43747: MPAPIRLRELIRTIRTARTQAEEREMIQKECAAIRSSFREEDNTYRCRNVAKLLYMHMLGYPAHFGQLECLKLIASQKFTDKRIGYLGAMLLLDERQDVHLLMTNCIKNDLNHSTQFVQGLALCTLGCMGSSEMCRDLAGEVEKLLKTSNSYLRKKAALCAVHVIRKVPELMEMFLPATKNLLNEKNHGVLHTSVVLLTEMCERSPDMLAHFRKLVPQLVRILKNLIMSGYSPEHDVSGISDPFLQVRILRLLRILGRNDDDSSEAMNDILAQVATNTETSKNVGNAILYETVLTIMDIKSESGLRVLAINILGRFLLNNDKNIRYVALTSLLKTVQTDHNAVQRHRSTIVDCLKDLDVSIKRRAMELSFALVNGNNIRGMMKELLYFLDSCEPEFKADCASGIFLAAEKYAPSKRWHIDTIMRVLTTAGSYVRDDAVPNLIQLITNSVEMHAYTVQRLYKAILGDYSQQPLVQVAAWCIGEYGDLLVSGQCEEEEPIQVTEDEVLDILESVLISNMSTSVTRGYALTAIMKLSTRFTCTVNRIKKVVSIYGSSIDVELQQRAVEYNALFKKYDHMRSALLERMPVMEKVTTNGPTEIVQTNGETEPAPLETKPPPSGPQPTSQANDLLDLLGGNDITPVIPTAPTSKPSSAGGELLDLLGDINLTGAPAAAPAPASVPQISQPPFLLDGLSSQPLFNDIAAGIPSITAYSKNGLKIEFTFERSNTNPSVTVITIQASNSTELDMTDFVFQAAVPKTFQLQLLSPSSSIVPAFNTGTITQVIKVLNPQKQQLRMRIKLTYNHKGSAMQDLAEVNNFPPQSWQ
UniProt P13798: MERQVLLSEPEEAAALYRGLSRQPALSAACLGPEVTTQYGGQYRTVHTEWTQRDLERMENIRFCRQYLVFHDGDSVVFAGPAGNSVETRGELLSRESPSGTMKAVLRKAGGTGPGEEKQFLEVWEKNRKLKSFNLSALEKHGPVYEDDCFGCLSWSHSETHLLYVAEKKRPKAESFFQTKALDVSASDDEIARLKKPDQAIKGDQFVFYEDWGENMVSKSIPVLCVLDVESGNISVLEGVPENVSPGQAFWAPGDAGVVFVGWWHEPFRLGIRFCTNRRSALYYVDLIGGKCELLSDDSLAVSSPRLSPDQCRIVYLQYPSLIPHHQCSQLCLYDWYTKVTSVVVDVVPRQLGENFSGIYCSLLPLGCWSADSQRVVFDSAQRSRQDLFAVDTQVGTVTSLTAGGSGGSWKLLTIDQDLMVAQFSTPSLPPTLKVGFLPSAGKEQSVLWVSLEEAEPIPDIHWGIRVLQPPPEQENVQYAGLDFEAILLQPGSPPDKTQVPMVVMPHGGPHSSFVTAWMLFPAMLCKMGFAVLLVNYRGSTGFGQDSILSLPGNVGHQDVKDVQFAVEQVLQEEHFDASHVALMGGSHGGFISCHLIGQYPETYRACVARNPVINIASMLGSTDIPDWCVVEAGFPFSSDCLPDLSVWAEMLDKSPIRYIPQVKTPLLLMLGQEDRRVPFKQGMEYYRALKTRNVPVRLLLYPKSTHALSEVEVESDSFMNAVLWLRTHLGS
UniProt P52565: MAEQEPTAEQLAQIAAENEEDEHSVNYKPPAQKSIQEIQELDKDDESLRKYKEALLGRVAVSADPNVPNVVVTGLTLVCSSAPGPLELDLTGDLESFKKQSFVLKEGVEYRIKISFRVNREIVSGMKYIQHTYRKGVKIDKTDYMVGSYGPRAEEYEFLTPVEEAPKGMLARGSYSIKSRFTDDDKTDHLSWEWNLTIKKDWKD

Experiments:
Assay in all cases: log2 fold change, soluble protein after heating vs DMSO (PISA); higher = thermal stabilisation; K562 cells, 10 uM, 30 min; active = over 0.2 and 3.5 SD of the protein, either way, in both replicates (recomputed)
[1] = compound: CC[C@@H]1C(=O)N(C)c2cnc(Nc3ccc(C(=O)NC4CCN(C)CC4)cc3OC)nc2N1C1CCCC1
Summary of the method: (§1)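 For each measurement, 10 μM compound was applied for 30 min to K562 cells at 2×10^6 cells/mL. Aliquots were heated for 3 min across 48°C-58°C, pooled, and extracted in PBS with 0.5% NP-40 at 4°C; the supernatant after 21,000xg for 90 min was soluble protein. This was quantified by TMTpro 16plex LC-MS/MS with channel sums equalised, and thermal stability was reported relative to control samples from duplicates, on a log2 fold-change scale.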

volasertib = compound: CC[C@@H]1C(=O)N(C)c2cnc(Nc3ccc(C(=O)N[C@H]4CC[C@H](N5CCN(CC6CC6)CC5)CC4)cc3OC)nc2N1C(C)C [volasertib]
Summary of the method: as §1

[2] = compound: CC[C@H](C)N1C=C(C2=C(C=C(C=C21)C3=CN=C(C=C3)N4CCNCC4)C(=O)NCC5=C(C=C(NC5=O)C)C)C
Summary of the method: as §1

epoxomicin = compound: CC[C@H](C)[C@@H](C(=O)N[C@@H]([C@@H](C)O)C(=O)N[C@@H](CC(C)C)C(=O)[C@]1(CO1)C)NC(=O)[C@H]([C@@H](C)CC)N(C)C(=O)C [epoxomicin]
Summary of the method: as §1

[3] = compound: CCn1c(C(=O)N(C2CC2)C2CC2)cc2c3c(ncn3C)c(Nc3cc(C)n(C)n3)nc21
Summary of the method: as §1

[4] = compound: CCn1cc(-c2ccnc3[nH]c(-c4cccc(CN(C)C)c4)cc23)c(-c2ccc(NC(=O)N(C)C)cc2)n1
Summary of the method: as §1

[5] = compound: CN(C)CC(=O)Nc1ccc2[nH]c(=O)c3ccccc3c2c1
Summary of the method: as §1

rosiglitazone = compound: CN(CCOC1=CC=C(C=C1)C[C@H]2C(=O)NC(=O)S2)C3=CC=CC=N3 (racemic) [rosiglitazone]
Summary of the method: as §1

[6] = compound: CN1C2=C(C3=C1C(=O)N(N=C3)CC4=CC(=CC=C4)N)SC(=C2)S(=O)C
Summary of the method: as §1

[7] = compound: CN1CCC(CNc2ccc3ncc(-c4cccc(OC(F)(F)F)c4)n3n2)CC1
Summary of the method: as §1

saracatinib = compound: CN1CCN(CCOc2cc(OC3CCOCC3)c3c(Nc4c(Cl)ccc5c4OCO5)ncnc3c2)CC1 [saracatinib]
Summary of the method: as §1

sotrastaurin = compound: CN1CCN(c2nc(C3=C(c4c[nH]c5ccccc45)C(=O)NC3=O)c3ccccc3n2)CC1 [sotrastaurin]
Summary of the method: as §1

alvocidib = compound: CN1CC[C@H](c2c(O)cc(O)c3c(=O)cc(-c4ccccc4Cl)oc23)[C@H](O)C1 [alvocidib]
Summary of the method: as §1

Tubastatin A = compound: CN1CCc2c(c3ccccc3n2Cc2ccc(C(=O)NO)cc2)C1 [Tubastatin A]
Summary of the method: as §1

[8] = compound: CNC(=O)C1=CC=CC=C1NC2=NC(=NC=C2Cl)NC3=C(C=C(C=C3)N4CCOCC4)OC
Summary of the method: as §1

defactinib = compound: CNC(=O)c1ccc(Nc2ncc(C(F)(F)F)c(NCc3nccnc3N(C)S(C)(=O)=O)n2)cc1 [defactinib]
Summary of the method: as §1

rucaparib = compound: CNCc1ccc(-c2[nH]c3cc(F)cc4c3c2CCNC4=O)cc1 [rucaparib]
Summary of the method: as §1

[9] = compound: CNc1nc(-c2ccc3c(N)n[nH]c3c2)cc(N2C[C@@H](C(=O)NC3CCCCC3)CC[C@H]2C)n1
Summary of the method: as §1

encorafenib = compound: COC(=O)N[C@@H](C)CNc1nccc(-c2cn(C(C)C)nc2-c2cc(Cl)cc(NS(C)(=O)=O)c2F)n1 [encorafenib]
Summary of the method: as §1

[10] = compound: COC(=O)[C@H](CCSC)NC(=O)C1=C(C=C(C=C1)NC[C@H](CS)N)C2=CC=CC=C2
Summary of the method: as §1

Measured: log2 fold change

APRT (UniProt P07741)
inactive: [1] 0.043 | volasertib 0.117 | [2] -0.064 | epoxomicin 0.008 | [3] 0.027 | [4] 0.007 | [5] -0.008 | rosiglitazone 0.011 | [6] -0.081 | [7] -0.116 | saracatinib -0.013 | sotrastaurin 0.005 | alvocidib 0.013 | Tubastatin A -0.002 | [8] -0.041 | defactinib -0.006 | rucaparib -0.023 | [9] -0.015 | encorafenib -0.002 | [10] 0.017

ANKRD46 (UniProt Q86W74)
inactive: [1] 0.133 | volasertib -0.096 | [2] 0.069 | epoxomicin 0.153 | [3] -0.232 | [4] 0.06 | [5] -0.036 | rosiglitazone 0.049 | [6] -0.021 | [7] 0.12 | saracatinib -0.05 | sotrastaurin -0.011 | alvocidib 0.141 | Tubastatin A 0.152 | [8] 0.052 | defactinib -0.052 | rucaparib -0.179 | [9] -0.104 | encorafenib 0.098 | [10] 0.063

APOO (UniProt Q9BUR5)
inactive: [1] -0.022 | volasertib 0.042 | [2] -0.021 | epoxomicin 0.032 | [3] 0.007 | [4] 0.073 | [5] -0.014 | rosiglitazone 0.021 | [6] 0.033 | [7] -0.107 | saracatinib 0.059 | sotrastaurin 0.048 | alvocidib -0.045 | Tubastatin A 0.086 | [8] -0.034 | defactinib -0.004 | rucaparib -0.061 | [9] -0.093 | encorafenib -0.008 | [10] 0.076

Reprinted at random: 2 entries already listed, in no set order.
APRT (UniProt P07741)
inactive: [1] 0.043 | volasertib 0.117 | [2] -0.064 | epoxomicin 0.008 | [3] 0.027 | [4] 0.007 | [5] -0.008 | rosiglitazone 0.011 | [6] -0.081 | [7] -0.116 | saracatinib -0.013 | sotrastaurin 0.005 | alvocidib 0.013 | Tubastatin A -0.002 | [8] -0.041 | defactinib -0.006 | rucaparib -0.023 | [9] -0.015 | encorafenib -0.002 | [10] 0.017

APOO (UniProt Q9BUR5)
inactive: [1] -0.022 | volasertib 0.042 | [2] -0.021 | epoxomicin 0.032 | [3] 0.007 | [4] 0.073 | [5] -0.014 | rosiglitazone 0.021 | [6] 0.033 | [7] -0.107 | saracatinib 0.059 | sotrastaurin 0.048 | alvocidib -0.045 | Tubastatin A 0.086 | [8] -0.034 | defactinib -0.004 | rucaparib -0.061 | [9] -0.093 | encorafenib -0.008 | [10] 0.076

Next entries follow:

ANLN (UniProt Q9NQW6)
inactive: [1] -0.021 | volasertib -0.03 | [2] 0.005 | epoxomicin 0.065 | [3] -0.059 | [4] -0.265 | [5] -0.133 | rosiglitazone -0.145 | [6] 0.158 | [7] -0.109 | saracatinib -0.125 | sotrastaurin -0.092 | [8] 0.02 | defactinib -0.421 | rucaparib 0.004 | [9] -0.101 | encorafenib -0.006 | [10] 0.063

ANP32B (UniProt Q92688)
inactive: [1] -0.052 | volasertib -0.095 | [2] 0.007 | epoxomicin -0.014 | [3] 0.001 | [4] -0.027 | [5] 0.016 | rosiglitazone 0.037 | [6] -0.058 | [7] -0.066 | saracatinib 0.002 | sotrastaurin 0.036 | alvocidib -0.092 | Tubastatin A -0.004 | [8] 0.12 | defactinib -0.115 | rucaparib -0.119 | [9] -0.046 | encorafenib 0.006 | [10] 0.003

APEX1 (UniProt P27695)
inactive: [1] -0.033 | volasertib -0.034 | [2] 0.063 | epoxomicin 0.02 | [3] 0.021 | [4] -0.064 | [5] 0.019 | rosiglitazone 0.051 | [6] -0.011 | [7] 0.03 | saracatinib 0.008 | sotrastaurin -0.002 | alvocidib -0.024 | Tubastatin A -0.039 | [8] 0.073 | defactinib -0.155 | rucaparib -0.041 | [9] 0.003 | encorafenib 0.06 | [10] -0.01

APP (UniProt P05067)
inactive: [1] -0.139 | volasertib -0.156 | [2] -0.067 | epoxomicin 0.077 | [3] 0.094 | sotrastaurin 0.027 | Tubastatin A -0.048 | [8] 0.088 | rucaparib -0.328 | encorafenib 0.64

ANTXR2 isoform 4 (UniProt P58335)
inactive: [1] -0.052 | volasertib -0.045 | [2] -0.006 | epoxomicin 0.004 | [3] 0.02 | [4] -0.034 | [5] -0.028 | rosiglitazone -0.016 | [6] -0.024 | [7] 0.006 | saracatinib -0.01 | sotrastaurin 0.046 | alvocidib -0.008 | Tubastatin A 0.009 | [8] -0.01 | defactinib 0.007 | rucaparib -0.045 | [9] -0.053 | encorafenib 0.024 | [10] 0.03

ANK1 isoform 14 (UniProt P16157)
inactive: [1] 0.153 | volasertib -0.103 | [2] 0.022 | epoxomicin -0.175 | [3] 0.034 | [4] 0.198 | [5] 0.021 | rosiglitazone 0.064 | [6] 0.366 | [7] -0.044 | saracatinib -0.056 | sotrastaurin -0.17 | alvocidib 0.073 | Tubastatin A 0.141 | [8] 0.024 | defactinib 0.121 | rucaparib 0.621 | [9] 0.075 | encorafenib 0.271 | [10] -0.08

ANKRD49 (UniProt Q8WVL7)
inactive: [1] 0.061 | volasertib 0.033 | [2] 0.102 | epoxomicin 0.001 | [3] -0.026 | [4] -0.086 | [5] 0.032 | rosiglitazone 0.031 | [6] -0.053 | [7] -0.029 | saracatinib -0.045 | sotrastaurin -0.021 | alvocidib -0.067 | Tubastatin A 0.002 | [8] -0.048 | defactinib -0.078 | rucaparib -0.018 | [9] -0.015 | encorafenib 0.032 | [10] 0.001

ANXA6 (UniProt P08133)
inactive: [1] -0.021 | volasertib -0.108 | [2] 0.039 | epoxomicin -0.003 | [3] -0.005 | [4] 0.228 | [5] 0.043 | rosiglitazone 0.024 | [6] 0 | [7] -0.035 | saracatinib -0.026 | sotrastaurin 0.05 | alvocidib -0.093 | Tubastatin A 0.022 | [8] 0.028 | defactinib -0.089 | rucaparib -0.037 | [9] -0.049 | encorafenib 0.03 | [10] -0.028

ARF5 (UniProt P84085)
inactive: [1] 0.008 | volasertib 0.043 | [2] -0.027 | epoxomicin -0.044 | [3] 0.009 | [4] -0.01 | [5] 0.011 | rosiglitazone 0.018 | [6] -0.073 | [7] 0.039 | saracatinib 0.005 | sotrastaurin 0.072 | alvocidib 0.014 | Tubastatin A -0.017 | [8] -0.026 | defactinib -0.004 | rucaparib -0.055 | [9] -0.046 | encorafenib 0.011 | [10] -0.008

APMAP (UniProt Q9HDC9)
inactive: [1] 0.023 | volasertib 0.025 | [2] -0.082 | epoxomicin 0.02 | [3] -0.016 | [4] -0.002 | [5] -0.034 | rosiglitazone -0.009 | [6] -0.073 | [7] 0.063 | saracatinib 0.036 | sotrastaurin 0.036 | alvocidib 0.008 | Tubastatin A -0.035 | [8] 0.047 | defactinib -0.014 | rucaparib -0.111 | [9] -0.021 | encorafenib -0.006 | [10] 0.01

APOBEC3C (UniProt Q9NRW3)
inactive: [1] 0.131 | volasertib 0.175 | [2] 0.021 | epoxomicin -0.198 | [3] -0.049 | [4] 0.077 | [5] -0.091 | rosiglitazone -0.114 | [6] 0.188 | [7] 0.24 | saracatinib -0.023 | sotrastaurin 0.008 | alvocidib 0.206 | Tubastatin A 0.071 | [8] 0.011 | defactinib 0.275 | rucaparib 0.255 | [9] 0.056 | encorafenib 0.122 | [10] 0.032

AP1G1 isoform 2 (UniProt O43747)
inactive: [1] -0.019 | volasertib -0.235 | [2] 0.029 | epoxomicin -0.006 | [3] -0.068 | [4] -0.049 | [5] 0.042 | rosiglitazone 0.051 | [6] -0.051 | [7] -0.024 | saracatinib 0 | sotrastaurin -0.126 | alvocidib -0.051 | Tubastatin A 0.032 | [8] 0.012 | defactinib -0.047 | rucaparib 0.064 | [9] 0.049 | encorafenib 0.051 | [10] -0.086

APEH (UniProt P13798)
inactive: [1] 0.039 | volasertib 0.024 | [2] -0.033 | epoxomicin -0.005 | [3] 0.045 | [4] 0.018 | [5] -0.006 | rosiglitazone 0.004 | [6] -0.041 | [7] -0.025 | saracatinib 0.004 | sotrastaurin 0.025 | alvocidib 0.002 | Tubastatin A -0.014 | [8] -0.025 | defactinib 0.001 | rucaparib -0.029 | [9] -0.005 | encorafenib -0.014 | [10] 0.015

ARHGDIA (UniProt P52565)
inactive: [1] -0.014 | volasertib -0.024 | [2] 0.027 | epoxomicin 0.023 | [3] -0.001 | [4] -0.003 | [5] 0.079 | rosiglitazone 0.024 | [6] -0.06 | [7] -0.004 | saracatinib -0.006 | sotrastaurin -0.008 | alvocidib -0.081 | Tubastatin A 0.053 | [8] -0.031 | defactinib -0.037 | rucaparib -0.067 | [9] 0.017 | encorafenib 0.023 | [10] -0.029
